The results in this text go back to the supplement of paper PMC12819154, “High-throughput peptide-centric local stability assay extends protein–ligand identification to membrane proteins, tissues and bacteria” (Nature Structural & Molecular Biology, 2025).

Sequences of proteins named here, by UniProt entry; tags and fusion partners are left off. A change or cut given only in a name is not applied to a line headed by its entry.
UniProt Q96IZ5: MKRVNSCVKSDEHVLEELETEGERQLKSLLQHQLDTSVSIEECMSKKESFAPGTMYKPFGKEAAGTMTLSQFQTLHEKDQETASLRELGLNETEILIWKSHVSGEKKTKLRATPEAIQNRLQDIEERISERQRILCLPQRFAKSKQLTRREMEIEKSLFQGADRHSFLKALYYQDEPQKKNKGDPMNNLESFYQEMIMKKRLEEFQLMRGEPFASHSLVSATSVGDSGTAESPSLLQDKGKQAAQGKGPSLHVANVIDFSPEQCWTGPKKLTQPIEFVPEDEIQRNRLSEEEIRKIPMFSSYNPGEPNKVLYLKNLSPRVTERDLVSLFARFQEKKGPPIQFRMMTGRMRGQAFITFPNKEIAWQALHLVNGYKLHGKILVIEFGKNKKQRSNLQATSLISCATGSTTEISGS
UniProt Q96GM5, whole entry: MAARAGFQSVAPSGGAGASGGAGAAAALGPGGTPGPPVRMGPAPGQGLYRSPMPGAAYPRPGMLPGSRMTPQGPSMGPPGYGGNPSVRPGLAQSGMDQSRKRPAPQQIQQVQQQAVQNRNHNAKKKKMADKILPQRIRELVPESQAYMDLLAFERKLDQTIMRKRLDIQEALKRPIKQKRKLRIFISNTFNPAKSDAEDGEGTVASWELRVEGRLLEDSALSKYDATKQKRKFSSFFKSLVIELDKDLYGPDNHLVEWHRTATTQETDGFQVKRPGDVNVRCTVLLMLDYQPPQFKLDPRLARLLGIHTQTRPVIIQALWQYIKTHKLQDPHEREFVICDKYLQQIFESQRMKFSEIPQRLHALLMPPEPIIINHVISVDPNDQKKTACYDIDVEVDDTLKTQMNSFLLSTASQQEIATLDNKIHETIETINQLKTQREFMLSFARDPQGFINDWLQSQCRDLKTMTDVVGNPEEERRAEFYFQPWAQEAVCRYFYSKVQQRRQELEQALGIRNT
UniProt Q96KP1: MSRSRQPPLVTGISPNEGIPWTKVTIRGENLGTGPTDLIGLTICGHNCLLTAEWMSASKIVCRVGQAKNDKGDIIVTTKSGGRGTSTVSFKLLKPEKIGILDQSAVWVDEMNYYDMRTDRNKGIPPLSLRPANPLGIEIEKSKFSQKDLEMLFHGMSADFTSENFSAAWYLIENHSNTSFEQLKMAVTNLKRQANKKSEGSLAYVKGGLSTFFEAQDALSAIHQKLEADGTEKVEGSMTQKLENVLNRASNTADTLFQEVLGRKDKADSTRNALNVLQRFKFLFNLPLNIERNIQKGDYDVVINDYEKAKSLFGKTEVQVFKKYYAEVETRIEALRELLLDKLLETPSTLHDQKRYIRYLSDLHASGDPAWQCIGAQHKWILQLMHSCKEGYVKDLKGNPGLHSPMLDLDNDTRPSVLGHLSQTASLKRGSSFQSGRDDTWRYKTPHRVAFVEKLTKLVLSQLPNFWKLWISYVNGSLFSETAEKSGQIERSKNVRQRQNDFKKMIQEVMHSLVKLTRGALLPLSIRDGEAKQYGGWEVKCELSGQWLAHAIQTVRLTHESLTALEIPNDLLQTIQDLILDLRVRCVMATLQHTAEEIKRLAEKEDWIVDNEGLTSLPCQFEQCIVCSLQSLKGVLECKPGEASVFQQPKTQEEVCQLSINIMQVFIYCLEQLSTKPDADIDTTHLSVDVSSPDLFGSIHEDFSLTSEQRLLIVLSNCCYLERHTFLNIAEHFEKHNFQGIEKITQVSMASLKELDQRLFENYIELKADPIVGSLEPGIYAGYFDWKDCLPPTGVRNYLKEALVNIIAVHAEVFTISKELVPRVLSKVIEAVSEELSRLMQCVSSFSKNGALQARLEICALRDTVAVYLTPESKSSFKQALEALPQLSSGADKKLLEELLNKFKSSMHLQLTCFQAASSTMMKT
UniProt Q96RG2: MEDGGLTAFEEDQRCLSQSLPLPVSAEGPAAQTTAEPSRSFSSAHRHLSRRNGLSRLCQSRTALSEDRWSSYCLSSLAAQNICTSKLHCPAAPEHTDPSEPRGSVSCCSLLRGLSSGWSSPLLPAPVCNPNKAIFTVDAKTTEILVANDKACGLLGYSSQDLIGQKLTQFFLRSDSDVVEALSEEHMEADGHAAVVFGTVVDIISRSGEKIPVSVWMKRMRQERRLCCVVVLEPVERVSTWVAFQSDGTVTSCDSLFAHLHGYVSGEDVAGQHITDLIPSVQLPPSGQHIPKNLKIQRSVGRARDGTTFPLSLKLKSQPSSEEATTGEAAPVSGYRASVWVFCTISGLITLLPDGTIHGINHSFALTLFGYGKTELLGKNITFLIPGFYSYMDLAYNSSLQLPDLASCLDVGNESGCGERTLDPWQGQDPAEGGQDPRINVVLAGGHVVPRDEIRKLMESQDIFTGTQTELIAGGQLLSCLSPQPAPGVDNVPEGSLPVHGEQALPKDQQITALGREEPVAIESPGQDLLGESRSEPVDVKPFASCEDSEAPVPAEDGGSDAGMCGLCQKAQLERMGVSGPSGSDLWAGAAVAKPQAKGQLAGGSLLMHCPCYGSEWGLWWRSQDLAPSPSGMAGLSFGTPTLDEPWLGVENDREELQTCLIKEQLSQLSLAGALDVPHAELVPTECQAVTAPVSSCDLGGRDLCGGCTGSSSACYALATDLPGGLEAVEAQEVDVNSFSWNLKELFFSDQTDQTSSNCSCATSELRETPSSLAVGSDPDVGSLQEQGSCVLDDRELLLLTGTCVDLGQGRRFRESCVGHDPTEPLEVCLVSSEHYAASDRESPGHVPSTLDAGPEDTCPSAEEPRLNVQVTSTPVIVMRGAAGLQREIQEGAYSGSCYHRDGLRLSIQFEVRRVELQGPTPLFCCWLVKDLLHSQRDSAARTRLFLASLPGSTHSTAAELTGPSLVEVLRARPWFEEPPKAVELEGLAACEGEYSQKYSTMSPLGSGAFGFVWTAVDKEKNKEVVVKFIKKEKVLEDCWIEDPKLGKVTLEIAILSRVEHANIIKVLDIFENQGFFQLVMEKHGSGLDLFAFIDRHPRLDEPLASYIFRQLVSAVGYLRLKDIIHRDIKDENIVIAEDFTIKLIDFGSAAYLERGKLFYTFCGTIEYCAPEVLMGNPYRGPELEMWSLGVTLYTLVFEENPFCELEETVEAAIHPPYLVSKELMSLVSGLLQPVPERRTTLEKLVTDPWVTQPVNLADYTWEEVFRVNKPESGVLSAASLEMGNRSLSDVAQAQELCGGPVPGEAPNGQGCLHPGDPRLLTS
UniProt Q96QP1: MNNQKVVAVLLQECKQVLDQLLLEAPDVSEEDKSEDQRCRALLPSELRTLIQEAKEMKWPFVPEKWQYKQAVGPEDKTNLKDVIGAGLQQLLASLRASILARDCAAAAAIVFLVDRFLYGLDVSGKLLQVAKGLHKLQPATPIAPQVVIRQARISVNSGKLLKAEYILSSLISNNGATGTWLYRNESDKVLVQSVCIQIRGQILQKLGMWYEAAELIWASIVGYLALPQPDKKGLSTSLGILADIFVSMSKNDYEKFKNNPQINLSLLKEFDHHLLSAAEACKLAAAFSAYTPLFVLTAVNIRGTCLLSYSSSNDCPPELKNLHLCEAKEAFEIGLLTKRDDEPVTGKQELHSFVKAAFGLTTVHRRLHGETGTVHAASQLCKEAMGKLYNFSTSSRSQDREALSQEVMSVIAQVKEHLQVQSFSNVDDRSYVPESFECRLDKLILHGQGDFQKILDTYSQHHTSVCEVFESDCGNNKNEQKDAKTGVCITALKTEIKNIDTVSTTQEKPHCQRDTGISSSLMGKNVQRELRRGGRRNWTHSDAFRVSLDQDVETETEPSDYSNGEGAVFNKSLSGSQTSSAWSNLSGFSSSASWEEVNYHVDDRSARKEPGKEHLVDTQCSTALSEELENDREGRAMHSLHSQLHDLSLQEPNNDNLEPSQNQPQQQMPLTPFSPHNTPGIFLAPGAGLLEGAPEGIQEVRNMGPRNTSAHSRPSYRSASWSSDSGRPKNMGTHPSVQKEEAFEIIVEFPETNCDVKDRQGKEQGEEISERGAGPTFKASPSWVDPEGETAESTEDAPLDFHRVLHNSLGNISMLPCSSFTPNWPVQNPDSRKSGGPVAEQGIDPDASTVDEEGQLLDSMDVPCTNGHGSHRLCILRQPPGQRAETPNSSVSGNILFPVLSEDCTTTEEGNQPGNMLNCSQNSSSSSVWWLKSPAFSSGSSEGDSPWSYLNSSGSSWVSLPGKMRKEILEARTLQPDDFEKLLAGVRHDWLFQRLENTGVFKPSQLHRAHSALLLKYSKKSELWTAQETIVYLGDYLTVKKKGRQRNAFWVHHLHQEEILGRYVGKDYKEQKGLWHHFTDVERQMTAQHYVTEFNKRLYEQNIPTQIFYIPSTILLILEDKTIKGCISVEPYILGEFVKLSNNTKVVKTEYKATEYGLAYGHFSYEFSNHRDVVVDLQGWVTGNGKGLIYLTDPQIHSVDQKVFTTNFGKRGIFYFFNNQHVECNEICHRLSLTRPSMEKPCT
UniProt Q96SZ6: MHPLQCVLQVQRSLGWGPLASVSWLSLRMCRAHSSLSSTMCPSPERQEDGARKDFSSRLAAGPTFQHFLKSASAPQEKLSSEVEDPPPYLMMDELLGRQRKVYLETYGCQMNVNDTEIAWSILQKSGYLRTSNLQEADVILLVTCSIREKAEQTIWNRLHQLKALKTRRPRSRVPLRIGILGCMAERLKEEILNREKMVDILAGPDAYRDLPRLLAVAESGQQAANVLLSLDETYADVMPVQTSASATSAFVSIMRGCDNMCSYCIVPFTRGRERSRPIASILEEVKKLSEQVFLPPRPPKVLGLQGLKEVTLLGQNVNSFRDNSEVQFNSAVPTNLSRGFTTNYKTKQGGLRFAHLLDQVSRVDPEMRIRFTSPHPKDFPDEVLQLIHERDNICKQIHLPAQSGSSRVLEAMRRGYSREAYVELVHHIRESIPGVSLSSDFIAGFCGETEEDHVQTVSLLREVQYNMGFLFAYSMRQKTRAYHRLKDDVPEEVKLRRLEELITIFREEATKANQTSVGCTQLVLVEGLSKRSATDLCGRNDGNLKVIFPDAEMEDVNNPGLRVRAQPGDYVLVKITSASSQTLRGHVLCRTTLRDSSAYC
UniProt Q96MT0: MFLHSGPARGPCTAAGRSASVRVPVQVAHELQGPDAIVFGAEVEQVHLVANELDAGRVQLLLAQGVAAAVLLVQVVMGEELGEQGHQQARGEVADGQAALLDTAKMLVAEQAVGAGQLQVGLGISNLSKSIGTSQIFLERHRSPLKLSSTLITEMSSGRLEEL

The other results are listed elsewhere or left out. Most values lie at the level of the controls, where differences are scatter.

Compound in the test: CN[C@@H]1C[C@H]2O[C@@](C)([C@@H]1OC)n1c3ccccc3c3c4c(c5c6ccccc6n2c5c31)C(=O)NC4 [staurosporine]
Put plainly: log2 fold change of tryptic peptide abundance, ligand vs vehicle (limited proteolysis) (log2 ratio); higher = more trypsin-susceptible (destabilized). The note with it: ligand concentration: 20 uM; sample: K562 cleared lysate; digestion: 4 min, 22 C (HT-PELSA RT4min, Orbitrap Astral).
Turning to “RBM41 (peptide sequence: DLVSLFAR, peptide start residue: 324) (UniProt Q96IZ5)”, the log2 fold change amounted to 0.384. As to “UniProt Q96K17 (peptide sequence: TATADDKKLQSSLK, peptide start residue: 31)”, the log2 fold change was 0.269.

As for “SMARCD1 (peptide sequence: AEFYFQPWAQEAVCR, peptide start residue: 479) (UniProt Q96GM5)”, the log2 fold change is -0.439. Turning to “EXOC2 (peptide sequence: WILQLMHSCKEGYVK, peptide start residue: 380) (UniProt Q96KP1)”, the log2 fold change turned out to be 0.457.

For the target “PASK (peptide sequence: TLDPWQGQDPAEGGQDPR, peptide start residue: 421) (UniProt Q96RG2)”, the log2 fold change was 0.273. Consider “ALPK1 (peptide sequence: VVAVLLQECK, peptide start residue: 6) (UniProt Q96QP1)”, for which the log2 fold change was found to be 0.168.

On to “CDK5RAP1 (peptide sequence: LAAGPTFQHFLK, peptide start residue: 59) (UniProt Q96SZ6)”, for which the log2 fold change is 0.176.

With “UniProt Q96MT0 (peptide sequence: SIGTSQIFLER, peptide start residue: 130)”, the log2 fold change amounted to 0.266.
